Assay results as given in paper doi:10.1101/2023.03.14.530545 (bioRxiv, 2023).
Results are given in words; binding and its absence hold for the method and conditions named. Some entries that bind do so weakly or less than the wild type.

Target: LexA-CnTps1(56-669) (Cryptococcus neoformans var. grubii strain H99) (UniProt Q6IVK9)
Experiment: two-hybrid

“LexA-CnTps1(56-669) (from UniProt Q6IVK9 56-669) (domain or fragment)” was tested, and the binding was “binds”.
